Patent US8962674B2 (Tokyo Institute of Technology, priority 2006, dated 2015)
At least one structure is not confirmed: it was looked up by name or label, or the drawing left a doubt.

Amino acid sequences for entries named in this document (tags omitted). Residues count along the entry.
UniProt P56817, 46-501: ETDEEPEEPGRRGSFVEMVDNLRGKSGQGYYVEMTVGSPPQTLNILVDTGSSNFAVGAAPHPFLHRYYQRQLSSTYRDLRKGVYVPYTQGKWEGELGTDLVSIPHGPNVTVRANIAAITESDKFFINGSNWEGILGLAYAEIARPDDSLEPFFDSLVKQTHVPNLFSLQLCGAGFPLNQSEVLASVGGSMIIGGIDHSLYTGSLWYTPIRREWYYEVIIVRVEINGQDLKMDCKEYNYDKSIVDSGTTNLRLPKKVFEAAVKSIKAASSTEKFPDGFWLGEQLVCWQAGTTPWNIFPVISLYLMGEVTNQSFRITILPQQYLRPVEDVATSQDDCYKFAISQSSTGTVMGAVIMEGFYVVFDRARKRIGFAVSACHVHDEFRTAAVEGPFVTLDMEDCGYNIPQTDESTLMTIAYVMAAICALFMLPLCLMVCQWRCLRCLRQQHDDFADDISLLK

Target: recombinant human β-secretase (rhBACE-1) (Homo sapiens (Human), UniProt P56817)
Experiment: β-Secretase enzyme inhibition assay (Test Example 1)
Type: biochemical
Conditions: compound solution 3 μM (FIG. 1 legend: 1.0 μM), 37° C., 2 hr, fluorescent substrate peptide
Method: β-Secretase Enzyme Inhibition Assay
Compounds were dissolved in dimethylsulfoxide (DMSO), and further diluted in 0.1 M sodium acetate buffer (with 150 mM sodium chloride, pH 4.5). The solution with no compound was used as a negative control. Then, 100 μL of these solutions (compound concentration: 3 μM), 1 μL of recombinant human β-secretase (rhBACE-1, R&D), and 5 μL of the fluorescent substrate peptide were mixed in a black 96-well plate (Nunc). After mixtures were incubated in the dark at 37° C. for 2 hr, the fluorescence intensities of the mixtures were measured by fluorescence microplate reader (Wallac) at 540 nm for excitation and at 590 nm for emission. The inhibition ratio was calculated as a percentage of the negative control. The sequence of the peptide was […] and labeled with fluorescent donor (Cy3) at Ser-1 and with quencher (Cy5Q) at Lys-9, respectively (Invitrogen).

COc1cc(/C=C/C(=O)CC(=O)/C=C/c2c[nH]c3ccccc23)ccc1O [CU148, (1E,6E)-1-(4-hydroxy-3-methoxyphenyl)-7-(1H-indol-3-yl)hepta-1,6-diene-3,5-dione]
inhibition of BACE-1 enzyme activity (inhibitory activities (%) shown in FIG. 1): strongly inhibited
